Measurements from “University of Dundee, Small-Polar-MMV Screening Library” (2021), ChEMBL document CHEMBL3988442.

The filed quantity is “Percent Effect” (%). The controls that fix the scale are not given in the record; negative values are as filed. Compounds were drawn at random from those tested, without regard to their results. A dash means the value is not listed here; it may have been measured.

Mtb growth Cornell: 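Whole-cell assay for inhibitors of Mycobacterium tuberculosis growth, labelled Cornell in the record; the read-out is not stated. The concentration is filed as 10 mM, unlikely as a test dose, so the dose is not known. Higher means stronger inhibition (inferred from two other growth screens of the library). Size under these conditions: about 53,000 compounds, about 900 of them at 50% or above in at least one test.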
Mtb heat-shock: 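Assay on Mycobacterium tuberculosis, filed only as a heat shock assay from Cornell; the read-out is not stated. The concentration is filed as 10 mM, unlikely as a test dose, so the dose is not known. Higher reads as stronger inhibition (inferred: compounds with an IC50 in retests scored well above the rest). About 69,000 compounds were tested under these conditions; 1.4% (about 930) showed 50% or more at least once.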

| # | Compound | Mtb growth Cornell | Mtb heat-shock |
|---|---|---|---|
| 1 | `O=C(CCc1nnc2ccccn2c1=O)NCc1cccnc1` | 13.01 | 4.372 |
| 2 | `[H][C@]12CC[C@](O)(CC1)C(COC)N2C(=O)c1ccco1` (stereo partly drawn) | 6.093 | 16.02 |
| 3 | `Fc1ccc(N2CCN(CCCc3cn[nH]c3)CC2)cc1` | -19.07 | -31.23 |
| 4 | `Cc1nccc(C2CN(C(=O)c3cncnc3)C2)n1` | 4.826 | -12.25 |
| 5 | `CSc1ncccc1C(=O)NCC(c1ccco1)N(C)C` (stereo not drawn) | 23 | -8.706 |
| 6 | `CCc1nc(C2CCCN2C(=O)c2cnc[nH]2)no1` (stereo not drawn) | 5.02 | -20.31 |
| 7 | `O=C(c1ccccc1N1CCOCC1)N1CCCC1Cn1cccn1` (stereo not drawn) | -38.44 | 13.35 |
| 8 | `O=C(NCc1c(F)cccc1F)C1CN(C(=O)c2cnccn2)C1` | -3.353 | 4.769 |
| 9 | `Cc1ncncc1C(=O)Nc1cnn(CC(=O)NC2CCCC2)c1` | - | -6.439 |
| 10 | `COc1cccc(S(=O)(=O)CCN2CCN(CC(F)F)CC2)c1` | 29.37 | 22.26 |
| 11 | `COCCNC(=O)NCCc1cccc(OC)c1O` | 1.843 | -12.56 |
| 12 | `O=C(O)C(F)(F)F.O=C(O)C(F)(F)F.[H][C@@]12COC[C@@H](CC(=O)N3CCOCC3)[C@]1([H])CN(Cc1ccncc1)C2` | - | -8.895 |
| 13 | `CCc1c(C)nc2cc(C3CCN(Cc4ccncc4C)C3)nn2c1O` (stereo not drawn) | -3.09 | -4.904 |
| 14 | `O=C(NCC1CC1)C1CN(C(=O)NC2CCCC2)Cc2cncn2C1` (stereo not drawn) | 8.801 | 18.1 |
| 15 | `CCC1C(=O)NCCN1c1nccc(C)n1` (stereo not drawn) | -0.2663 | -23.54 |
| 16 | `COCCN(Cc1ccccc1)Cc1csc(-c2ncccn2)n1` | 22.85 | 3.89 |
| 17 | `CN(C)C(Cn1ccnc1-c1nccn1C)c1ccccc1Cl` (stereo not drawn) | 5.012 | -8.444 |
| 18 | `NC(=O)Cn1c(CO)cnc1SCc1ccccc1Cl` | 3.066 | -14.73 |
| 19 | `Cn1cccc1C(=O)N1CCCCC1c1[nH]ncc1S(C)(=O)=O` (stereo not drawn) | - | 0 |
| 20 | `Cc1nnc(C2CCN(c3ccccc3)CC2)o1` | -4.378 | 15.71 |
| 21 | `[H][C@]12CC[C@]([H])(CN(S(=O)(=O)N(C)C)C1)N(C(=O)c1cnc(C)nc1C)C2` | 2.87 | -8.455 |
| 22 | `CC(C)Oc1ncccc1CNC(=O)Nc1ccccn1` | 4.567 | -14.02 |
| 23 | `CN1CCN(C(=O)C2CN(Cc3cc4ccccc4o3)CCN2)CC1` (stereo not drawn) | -14.57 | 2.224 |
| 24 | `CN(Cc1ccsc1)C(=O)c1cc2c([nH]c1=O)CCCC2=O` | 23.54 | 10.52 |
| 25 | `CC(C)(C)NC(=O)c1ccn(COc2c(Cl)cccc2Cl)n1` | 17.79 | -26.31 |
| 26 | `Cc1nc(CC(=O)N2CCCC[C@H](N(C)C)C2)cs1` | 1.762 | 11.82 |
| 27 | `Cc1ccc(C(=O)Nc2cn[nH]c2)cc1C` | - | 3.899 |
| 28 | `Cc1nn(C)c(N(C)C)c1CNCc1ccc(Cn2cccn2)cc1` | - | 22.92 |
| 29 | `O=C(O)C(F)(F)F.O=C(O)C(F)(F)F.O=C(O)C(F)(F)F.[H][C@]12C[C@@H](Cn3cccn3)N(C(C)C)[C@@]1([H])CCN(C1CCOCC1)C2` | 0.486 | -15.62 |
| 30 | `CC(=O)N1CCCC(C(=O)N2CCC(=Cc3cccc(F)c3)CC2)C1` (stereo not drawn) | - | -24.76 |
| 31 | `Cc1nc(CN2CCCC23CCN(c2nc4ccccc4s2)CC3)co1` | 53.88 | -13.98 |
| 32 | `O=C(C1CCOC1)N1CCN(CC2CC2)c2ccccc21` (stereo not drawn) | 26.21 | 1.848 |
| 33 | `CC(C)(C)c1cc(NC(=O)CN2CCCCC2Cn2cncn2)on1` (stereo not drawn) | 16.96 | -1.6 |
| 34 | `Cc1ocnc1C(=O)N(Cc1cccnc1)C[C@@H]1CCC(=O)N1` | -64.4 | 0.3898 |
| 35 | `NC(=O)C1(CCCc2ccccn2)CCCN(CCO)C1` (stereo not drawn) | 17.85 | -0.4057 |
| 36 | `CCC(C)(O)CNc1ccc(S(=O)(=O)C(F)F)cc1` (stereo not drawn) | - | 28.45 |
| 37 | `COCC(C)N(C)C(=O)NC1CCN(S(C)(=O)=O)CC1` (stereo not drawn) | - | 17.91 |
| 38 | `Cc1cc(F)ccc1CNCCn1cccn1` | 13.92 | 2.189 |
| 39 | `Cc1ccc(CN2CCCC3(CCCC(=O)N3)C2)s1.O=C(O)C(F)(F)F` (stereo not drawn) | - | -10.54 |
| 40 | `CCc1c(C)sc2c1c(N)nc(=O)n2CCCN(C)C` | 39.54 | 18.02 |
| 41 | `CCNc1ncc(C(=O)NCc2csc(-c3ncccn3)n2)cn1` | - | -97.14 |
| 42 | `Cc1ccc(CN(CCCn2ccnc2)Cc2[nH]cnc2C)s1.O=C(O)CC(O)(CC(=O)O)C(=O)O` | -7.331 | -16.97 |
| 43 | `CCCn1ccnc1-c1cccc(NC(=O)[C@H]2CCC(=O)N2)c1` | - | -1.654 |
| 44 | `Cc1ccccc1N1CC2(CCN(S(=O)(=O)c3ccccc3)C2)CC1=O` (stereo not drawn) | 42.86 | -3.791 |
| 45 | `CC1CCCN(C(=O)c2nnn(-c3ccc(C(F)(F)F)cc3)n2)C1` (stereo not drawn) | 77.62 | 20.76 |

Some entries from above, unchanged:

| Compound | Mtb growth Cornell | Mtb heat-shock |
|---|---|---|
| `CSc1ncccc1C(=O)NCC(c1ccco1)N(C)C` (stereo not drawn) | 23 | -8.706 |
| `CCc1c(C)nc2cc(C3CCN(Cc4ccncc4C)C3)nn2c1O` (stereo not drawn) | -3.09 | -4.904 |
| `Cc1ncncc1C(=O)Nc1cnn(CC(=O)NC2CCCC2)c1` | - | -6.439 |